# In the supplement of paper PMC10849652:
# Chains of the proteins cited; added tags and fusions are not shown. Lines headed by an entry give the natural chain unless they say otherwise; changes in a name come on top.
# UniProt Q96S52: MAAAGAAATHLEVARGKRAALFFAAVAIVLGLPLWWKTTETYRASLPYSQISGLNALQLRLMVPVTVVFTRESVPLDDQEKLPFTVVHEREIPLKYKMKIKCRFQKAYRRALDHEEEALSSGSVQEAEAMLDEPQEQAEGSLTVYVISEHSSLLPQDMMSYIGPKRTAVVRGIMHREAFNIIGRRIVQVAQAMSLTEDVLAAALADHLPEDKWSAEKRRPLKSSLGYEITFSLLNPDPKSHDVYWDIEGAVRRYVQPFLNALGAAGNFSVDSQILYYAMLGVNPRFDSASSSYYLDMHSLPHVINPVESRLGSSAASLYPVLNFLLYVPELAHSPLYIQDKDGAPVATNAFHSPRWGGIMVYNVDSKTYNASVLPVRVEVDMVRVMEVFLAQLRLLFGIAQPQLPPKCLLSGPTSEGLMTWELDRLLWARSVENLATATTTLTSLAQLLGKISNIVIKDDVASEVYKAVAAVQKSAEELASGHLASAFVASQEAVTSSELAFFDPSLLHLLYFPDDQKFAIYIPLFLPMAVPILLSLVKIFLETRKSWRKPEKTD
# UniProt Q9BUL5: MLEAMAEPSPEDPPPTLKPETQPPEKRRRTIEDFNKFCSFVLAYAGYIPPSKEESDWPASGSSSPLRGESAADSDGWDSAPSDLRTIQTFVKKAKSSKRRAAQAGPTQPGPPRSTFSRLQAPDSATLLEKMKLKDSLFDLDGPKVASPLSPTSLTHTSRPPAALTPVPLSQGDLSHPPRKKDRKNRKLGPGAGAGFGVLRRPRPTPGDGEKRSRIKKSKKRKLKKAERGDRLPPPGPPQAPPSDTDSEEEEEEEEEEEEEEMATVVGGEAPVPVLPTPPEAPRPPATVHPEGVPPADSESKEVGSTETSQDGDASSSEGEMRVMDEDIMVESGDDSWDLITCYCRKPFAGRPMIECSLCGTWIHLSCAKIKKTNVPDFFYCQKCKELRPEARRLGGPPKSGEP
# UniProt Q9GZP4: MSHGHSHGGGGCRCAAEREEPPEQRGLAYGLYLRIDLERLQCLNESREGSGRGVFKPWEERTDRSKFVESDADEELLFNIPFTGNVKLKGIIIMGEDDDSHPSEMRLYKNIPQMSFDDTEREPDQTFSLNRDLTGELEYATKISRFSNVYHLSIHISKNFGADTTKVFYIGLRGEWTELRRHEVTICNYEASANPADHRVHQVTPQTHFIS
# UniProt Q8NHP8: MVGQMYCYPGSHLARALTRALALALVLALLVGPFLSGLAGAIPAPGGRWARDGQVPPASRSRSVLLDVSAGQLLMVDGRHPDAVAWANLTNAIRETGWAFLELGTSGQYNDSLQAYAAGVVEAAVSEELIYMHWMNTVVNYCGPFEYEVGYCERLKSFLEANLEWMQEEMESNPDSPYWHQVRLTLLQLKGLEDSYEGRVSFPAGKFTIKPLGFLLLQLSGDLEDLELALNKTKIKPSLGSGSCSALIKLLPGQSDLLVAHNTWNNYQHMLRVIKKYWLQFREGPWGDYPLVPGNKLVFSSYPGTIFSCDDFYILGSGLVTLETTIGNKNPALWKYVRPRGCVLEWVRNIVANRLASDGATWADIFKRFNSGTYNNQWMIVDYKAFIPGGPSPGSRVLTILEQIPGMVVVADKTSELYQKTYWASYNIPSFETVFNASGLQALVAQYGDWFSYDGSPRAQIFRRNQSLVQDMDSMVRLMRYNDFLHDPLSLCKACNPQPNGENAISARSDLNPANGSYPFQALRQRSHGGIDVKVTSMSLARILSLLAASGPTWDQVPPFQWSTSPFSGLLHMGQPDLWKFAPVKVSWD
# UniProt Q15149: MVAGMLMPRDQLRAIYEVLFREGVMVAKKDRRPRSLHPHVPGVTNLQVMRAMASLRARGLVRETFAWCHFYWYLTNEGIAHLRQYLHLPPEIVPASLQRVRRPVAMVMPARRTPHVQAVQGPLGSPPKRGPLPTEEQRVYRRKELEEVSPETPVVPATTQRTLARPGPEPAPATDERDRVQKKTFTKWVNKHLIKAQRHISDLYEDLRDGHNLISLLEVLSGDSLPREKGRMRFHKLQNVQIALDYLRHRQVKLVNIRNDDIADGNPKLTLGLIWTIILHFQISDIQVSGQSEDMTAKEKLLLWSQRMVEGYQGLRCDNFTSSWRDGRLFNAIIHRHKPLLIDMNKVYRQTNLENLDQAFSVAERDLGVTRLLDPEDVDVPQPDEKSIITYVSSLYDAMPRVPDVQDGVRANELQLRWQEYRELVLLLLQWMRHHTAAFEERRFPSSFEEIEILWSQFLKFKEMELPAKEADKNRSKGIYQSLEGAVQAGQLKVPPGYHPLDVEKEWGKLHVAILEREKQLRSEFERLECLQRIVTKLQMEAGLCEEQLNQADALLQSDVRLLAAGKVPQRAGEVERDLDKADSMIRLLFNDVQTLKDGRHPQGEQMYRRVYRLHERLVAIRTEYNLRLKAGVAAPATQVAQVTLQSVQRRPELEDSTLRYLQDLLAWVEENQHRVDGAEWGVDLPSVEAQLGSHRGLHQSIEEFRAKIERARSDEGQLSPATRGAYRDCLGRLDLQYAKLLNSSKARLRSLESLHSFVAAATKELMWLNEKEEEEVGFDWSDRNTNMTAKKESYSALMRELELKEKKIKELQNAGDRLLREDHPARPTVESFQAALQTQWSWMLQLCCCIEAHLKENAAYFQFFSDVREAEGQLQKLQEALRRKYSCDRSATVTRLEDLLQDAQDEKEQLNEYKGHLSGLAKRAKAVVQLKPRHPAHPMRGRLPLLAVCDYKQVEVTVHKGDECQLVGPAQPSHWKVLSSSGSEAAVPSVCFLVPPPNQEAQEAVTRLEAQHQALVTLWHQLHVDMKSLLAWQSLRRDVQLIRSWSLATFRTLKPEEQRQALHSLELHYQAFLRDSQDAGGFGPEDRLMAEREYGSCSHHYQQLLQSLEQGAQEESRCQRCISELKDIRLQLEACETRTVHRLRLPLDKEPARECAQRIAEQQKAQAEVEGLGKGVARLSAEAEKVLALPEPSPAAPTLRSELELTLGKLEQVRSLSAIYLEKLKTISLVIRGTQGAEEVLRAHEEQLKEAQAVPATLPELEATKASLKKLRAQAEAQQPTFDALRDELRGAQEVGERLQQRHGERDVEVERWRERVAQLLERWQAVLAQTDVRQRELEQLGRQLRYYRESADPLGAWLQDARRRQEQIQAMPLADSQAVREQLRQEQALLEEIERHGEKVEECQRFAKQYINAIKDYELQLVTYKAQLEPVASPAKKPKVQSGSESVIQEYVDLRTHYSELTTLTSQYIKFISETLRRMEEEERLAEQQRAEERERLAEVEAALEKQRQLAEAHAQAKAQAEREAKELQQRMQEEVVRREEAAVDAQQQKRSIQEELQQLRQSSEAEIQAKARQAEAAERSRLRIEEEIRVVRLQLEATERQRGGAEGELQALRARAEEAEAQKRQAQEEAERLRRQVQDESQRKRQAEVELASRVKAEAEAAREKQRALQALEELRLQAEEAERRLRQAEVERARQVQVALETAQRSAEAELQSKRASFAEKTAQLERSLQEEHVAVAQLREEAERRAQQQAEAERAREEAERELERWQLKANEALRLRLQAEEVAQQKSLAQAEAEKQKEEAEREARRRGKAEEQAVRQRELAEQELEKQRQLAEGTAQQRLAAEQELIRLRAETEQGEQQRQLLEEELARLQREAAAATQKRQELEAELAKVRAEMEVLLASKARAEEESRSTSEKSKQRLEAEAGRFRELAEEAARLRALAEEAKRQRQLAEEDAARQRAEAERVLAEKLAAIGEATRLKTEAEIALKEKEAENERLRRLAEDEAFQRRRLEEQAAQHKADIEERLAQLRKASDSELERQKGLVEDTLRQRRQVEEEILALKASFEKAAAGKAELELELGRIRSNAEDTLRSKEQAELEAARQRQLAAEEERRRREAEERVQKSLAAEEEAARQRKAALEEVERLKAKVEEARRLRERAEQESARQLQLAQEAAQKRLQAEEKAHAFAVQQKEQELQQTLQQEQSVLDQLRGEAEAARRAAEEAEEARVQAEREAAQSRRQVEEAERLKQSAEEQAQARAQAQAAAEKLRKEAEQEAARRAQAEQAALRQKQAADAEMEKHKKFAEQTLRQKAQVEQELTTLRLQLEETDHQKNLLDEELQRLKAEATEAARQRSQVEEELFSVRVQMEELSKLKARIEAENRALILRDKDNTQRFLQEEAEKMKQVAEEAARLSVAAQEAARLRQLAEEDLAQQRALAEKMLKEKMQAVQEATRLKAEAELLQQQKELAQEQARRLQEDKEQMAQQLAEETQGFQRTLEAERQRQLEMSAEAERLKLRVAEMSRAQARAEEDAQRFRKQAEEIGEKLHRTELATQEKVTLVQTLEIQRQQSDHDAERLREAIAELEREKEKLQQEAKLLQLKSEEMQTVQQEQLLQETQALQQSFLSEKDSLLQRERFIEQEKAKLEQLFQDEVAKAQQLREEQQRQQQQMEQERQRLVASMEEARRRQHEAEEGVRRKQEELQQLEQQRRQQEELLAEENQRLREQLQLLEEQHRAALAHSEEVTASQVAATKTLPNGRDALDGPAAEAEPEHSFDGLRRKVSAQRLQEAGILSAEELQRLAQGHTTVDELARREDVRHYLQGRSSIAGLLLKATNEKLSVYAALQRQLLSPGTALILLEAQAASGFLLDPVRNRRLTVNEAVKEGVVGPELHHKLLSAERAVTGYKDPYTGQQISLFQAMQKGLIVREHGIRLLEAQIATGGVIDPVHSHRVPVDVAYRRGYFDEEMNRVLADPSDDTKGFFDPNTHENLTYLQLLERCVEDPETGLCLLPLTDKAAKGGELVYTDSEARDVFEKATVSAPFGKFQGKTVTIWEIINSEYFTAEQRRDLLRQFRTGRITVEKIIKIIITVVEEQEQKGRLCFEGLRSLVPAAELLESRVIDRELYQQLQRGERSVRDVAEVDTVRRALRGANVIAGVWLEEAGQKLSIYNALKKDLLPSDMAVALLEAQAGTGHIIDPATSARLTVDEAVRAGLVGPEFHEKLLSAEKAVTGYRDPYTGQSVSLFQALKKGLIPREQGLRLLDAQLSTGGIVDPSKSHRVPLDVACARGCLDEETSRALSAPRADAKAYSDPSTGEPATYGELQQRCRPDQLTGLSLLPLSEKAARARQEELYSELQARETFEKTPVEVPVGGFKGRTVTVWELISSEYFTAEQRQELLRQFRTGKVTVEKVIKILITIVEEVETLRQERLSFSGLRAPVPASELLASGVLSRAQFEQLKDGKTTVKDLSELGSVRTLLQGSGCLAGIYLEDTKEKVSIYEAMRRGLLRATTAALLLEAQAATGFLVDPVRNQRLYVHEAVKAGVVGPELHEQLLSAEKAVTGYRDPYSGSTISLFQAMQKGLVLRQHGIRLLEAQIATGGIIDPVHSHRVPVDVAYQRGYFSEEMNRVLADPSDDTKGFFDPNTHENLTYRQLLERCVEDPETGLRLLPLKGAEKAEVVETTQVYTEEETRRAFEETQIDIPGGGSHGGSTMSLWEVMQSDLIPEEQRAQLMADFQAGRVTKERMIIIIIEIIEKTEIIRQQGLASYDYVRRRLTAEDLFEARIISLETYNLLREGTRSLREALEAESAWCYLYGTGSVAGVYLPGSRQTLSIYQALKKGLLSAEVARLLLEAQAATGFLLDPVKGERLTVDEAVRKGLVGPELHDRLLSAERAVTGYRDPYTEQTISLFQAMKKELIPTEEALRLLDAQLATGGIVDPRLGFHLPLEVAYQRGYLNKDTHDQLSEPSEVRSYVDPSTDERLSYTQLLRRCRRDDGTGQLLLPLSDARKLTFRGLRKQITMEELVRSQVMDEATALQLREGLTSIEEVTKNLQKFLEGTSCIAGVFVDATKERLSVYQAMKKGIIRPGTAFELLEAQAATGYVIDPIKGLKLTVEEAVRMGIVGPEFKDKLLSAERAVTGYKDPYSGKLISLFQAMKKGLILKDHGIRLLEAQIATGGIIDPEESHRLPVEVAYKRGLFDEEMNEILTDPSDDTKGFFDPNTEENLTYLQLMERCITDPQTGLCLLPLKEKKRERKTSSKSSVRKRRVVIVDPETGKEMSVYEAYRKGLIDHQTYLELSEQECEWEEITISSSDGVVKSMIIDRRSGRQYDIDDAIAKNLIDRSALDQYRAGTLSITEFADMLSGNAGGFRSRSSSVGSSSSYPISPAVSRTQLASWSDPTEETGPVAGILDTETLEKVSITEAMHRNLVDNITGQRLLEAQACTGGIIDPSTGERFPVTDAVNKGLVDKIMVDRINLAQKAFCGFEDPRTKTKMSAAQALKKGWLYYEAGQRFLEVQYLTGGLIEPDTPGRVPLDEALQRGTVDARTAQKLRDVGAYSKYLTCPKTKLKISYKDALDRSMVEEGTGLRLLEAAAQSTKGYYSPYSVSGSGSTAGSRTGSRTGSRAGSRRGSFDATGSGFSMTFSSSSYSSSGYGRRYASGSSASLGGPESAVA
# This is one part of the list.
# Columns and labels:
# Assay in all cases: log2 fold change, soluble protein after heating vs DMSO (PISA); higher = thermal stabilisation; K562 lysate, 10 uM; active = over 0.2 and 3.5 SD of the protein, either way, in both replicates (recomputed)
# [1] = compound: CS(=O)(=O)CCNCc1ccc(-c2ccc3ncnc(Nc4ccc(OCc5cccc(F)c5)c(Cl)c4)c3c2)o1 [lapatinib]
# How it was run: (§1)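 Following dounce homogenisation of K562 pellets in PBS pH 7.4 with 1 mM MgCl2, crude extract at 1 mg/mL protein was incubated for 30 min with 10 μM compound. Aliquots were then heated for 3 min over 48°C-58°C and pooled, NP-40 was added to 0.5% at 4°C, and soluble protein was recovered as the supernatant at 21,000xg for 90 min. Channel-sum-equalised TMTpro 16plex LC-MS/MS quantified this protein. Each value, from duplicates, is a log-two fold change in thermal stability relative to solvent controls.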
# [2] = compound: CS(=O)(=O)N1CCN(Cc2cc3nc(-c4cccc5[nH]ncc45)nc(N4CCOCC4)c3s2)CC1 [pictilisib]
# How it was run: as §1
# [3] = compound: C[C@@H](Oc1cc(-c2cnn(C3CCNCC3)c2)cnc1N)c1c(Cl)ccc(F)c1Cl [crizotinib]
# How it was run: as §1
# [4] = compound: C[C@H](C1=CC=C(C=C1)C(=O)NC2=C3C=CNC3=NC=C2)N
# How it was run: as §1
# [5] = compound: C[C@H](Nc1ncnc2nc[nH]c12)c1cc2cccc(Cl)c2c(=O)n1-c1ccccc1 [duvelisib]
# How it was run: as §1
# [6] = compound: Cc1cc(Nc2cc(CN3CCOCC3)c3nc(C)c(Cc4ccc(Cl)cc4F)n3n2)n[nH]1 [gandotinib]
# How it was run: as §1
# [7] = compound: Cc1cc(Nc2cc(N3CCN(C)CC3)nc(Sc3ccc(NC(=O)C4CC4)cc3)n2)n[nH]1 [tozasertib]
# How it was run: as §1
# [8] = compound: Cc1ccc(-n2nc(C(C)(C)C)cc2NC(=O)Nc2ccc(OCCN3CCOCC3)c3ccccc23)cc1 [doramapimod]
# How it was run: as §1
# [9] = compound: Cc1ccc(NC(=O)c2ccc(CN3CC[C@H](N(C)C)C3)c(C(F)(F)F)c2)cc1Nc1nccc(-c2cncnc2)n1 [bafetinib]
# How it was run: as §1
# [10] = compound: Cc1cccc(CC(=O)N2CCc3c2ccc(-c2cn(C)c4ncnc(N)c24)c3F)n1
# How it was run: as §1
Target,log2 fold change [1],log2 fold change [2],log2 fold change [3],log2 fold change [4],log2 fold change [5],log2 fold change [6],log2 fold change [7],log2 fold change [8],log2 fold change [9],log2 fold change [10]
PGM2L1 (UniProt Q6PCE3),inactive: -0.018,inactive: 0.023,inactive: -0.012,inactive: -0.051,inactive: 0.062,inactive: 0.007,inactive: -0.058,inactive: 0.063,inactive: -0.014,inactive: 0.036
PIK3CA (UniProt P42336),inactive: -0.015,inactive: -0.001,inactive: 0.032,inactive: 0.025,inactive: -0.251,inactive: -0.052,inactive: 0.058,inactive: -0.027,inactive: -0.086,inactive: 0.01
PHKA1 (UniProt P46020),inactive: -0.117,inactive: -0.003,inactive: -0.001,inactive: -0.042,inactive: -0.044,inactive: 0.069,inactive: 0.009,inactive: 0.024,inactive: 0.051,inactive: -0.047
PHF21A isoform 3 (UniProt Q96BD5),inactive: 0.024,inactive: 0.075,inactive: 0.038,inactive: -0.155,inactive: 0.037,inactive: -0.028,inactive: 0.005,inactive: 0.01,inactive: 0.031,inactive: 0.045
PIK3R4 (UniProt Q99570),inactive: -0.02,inactive: 0.012,inactive: -0.087,inactive: -0.036,inactive: 0.081,inactive: 0.125,inactive: 0.016,inactive: -0.02,inactive: 0.02,inactive: 0.038
PIGS (UniProt Q96S52),inactive: -0.075,inactive: -0.042,inactive: -0.061,inactive: 0.006,inactive: -0.05,inactive: -0.101,inactive: -0.009,inactive: -0.003,inactive: -0.062,inactive: 0.041
PHKG2 (UniProt P15735),inactive: -0.07,inactive: -0.069,inactive: 0.166,inactive: 0,inactive: -0.008,inactive: 0.061,inactive: -0.051,inactive: 0.031,inactive: 0.015,inactive: -0.107
PHF3 (UniProt Q92576),inactive: 0.013,inactive: -0.014,inactive: -0.046,inactive: -0.043,inactive: 0.007,inactive: 0.049,inactive: -0.048,inactive: 0.068,inactive: -0.147,inactive: 0.033
PHKA2 (UniProt P46019),inactive: -0.085,inactive: -0.042,inactive: 0.048,inactive: 0.022,inactive: -0.01,inactive: -0.035,inactive: -0.015,inactive: 0.013,inactive: -0.109,inactive: -0.012
PIP4P2 (UniProt Q8N4L2),inactive: 0.021,inactive: -0.019,inactive: 0.021,inactive: 0.053,inactive: 0.027,inactive: -0.021,inactive: 0.061,inactive: 0.033,inactive: -0.09,inactive: -0.009
PHF23 (UniProt Q9BUL5),inactive: 0.016,inactive: -0.061,inactive: 0.042,inactive: 0.055,inactive: 0.02,inactive: 0.004,inactive: 0.117,inactive: -0.006,inactive: 0.012,inactive: -0.006
PINX1 (UniProt Q96BK5),inactive: 0.081,inactive: -0.049,inactive: -0.032,inactive: -0.005,inactive: 0.111,inactive: 0.201,inactive: 0.136,inactive: 0.035,inactive: -0.07,inactive: 0.265
PKNOX1 (UniProt P55347),inactive: 0.007,inactive: 0.132,inactive: -0.004,inactive: 0.023,inactive: -0.007,inactive: -0.005,inactive: -0.073,inactive: -0.017,inactive: -0.02,inactive: 0.041
PGS1 (UniProt Q32NB8),inactive: -0.095,inactive: -0.043,inactive: -0.171,inactive: -0.003,inactive: -0.002,inactive: 0.038,inactive: 0.026,inactive: 0.042,inactive: -0.254,inactive: -0.008
PIN1 (UniProt Q13526),inactive: 0.019,inactive: 0.003,inactive: 0.017,inactive: 0.008,inactive: 0.046,inactive: 0.076,inactive: 0.01,inactive: -0.028,inactive: -0.02,inactive: 0.03
PHF10 (UniProt Q8WUB8),inactive: 0.065,inactive: -0.027,inactive: 0.055,inactive: 0.028,inactive: 0.044,inactive: -0.007,inactive: 0.098,inactive: -0.022,inactive: -0.057,inactive: 0.054
PITHD1 (UniProt Q9GZP4),inactive: 0.006,inactive: 0.002,inactive: -0.006,inactive: -0.083,inactive: 0.001,inactive: 0.101,inactive: -0.013,inactive: -0.036,inactive: 0.16,inactive: 0.037
PITPNA (UniProt Q00169),inactive: -0.01,inactive: 0.003,inactive: 0.012,inactive: 0.092,inactive: 0.003,inactive: -0.04,inactive: 0.006,inactive: 0.014,inactive: -0.009,inactive: -0.069
PIK3R2 (UniProt O00459),inactive: -0.009,active: 0.318,inactive: -0.018,inactive: 0.009,active: 0.322,inactive: 0.043,inactive: 0.009,inactive: 0.014,inactive: -0.004,inactive: -0.016
PLBD2 (UniProt Q8NHP8),inactive: 0.035,inactive: -0.056,inactive: -0.018,inactive: -0.074,inactive: 0.005,inactive: 0.052,inactive: 0.097,inactive: 0.007,inactive: 0.067,inactive: -0.02
PLEC (UniProt Q15149),inactive: -0.003,inactive: -0.006,inactive: -0.024,inactive: -0.045,inactive: -0.071,inactive: 0.041,inactive: 0.047,inactive: 0.04,inactive: -0.04,inactive: 0.043
PIGG (UniProt Q5H8A4),inactive: -0.068,inactive: 0.006,inactive: -0.076,inactive: 0.146,inactive: 0.014,inactive: -0.119,inactive: 0.015,inactive: 0.048,inactive: -0.035,inactive: -0.039
PLCH1 (UniProt Q4KWH8),inactive: 0.034,inactive: 0.01,inactive: 0.026,inactive: -0.039,inactive: 0.014,inactive: -0.1,inactive: 0.063,inactive: 0.032,inactive: -0.029,inactive: 0.104
PIK3C3 (UniProt Q8NEB9),inactive: -0.066,inactive: 0.041,inactive: -0.009,inactive: -0.137,inactive: 0.107,active: 0.272,inactive: -0.042,inactive: -0.005,inactive: -0.013,inactive: 0.133
PKM (UniProt P14618),inactive: -0.007,inactive: -0.001,inactive: -0.023,inactive: -0.056,inactive: -0.006,inactive: 0.015,inactive: -0.023,inactive: -0.017,inactive: -0.009,inactive: 0.005
PGRMC2 isoform 2 (UniProt O15173),inactive: 0.016,inactive: -0.03,inactive: 0.003,inactive: -0.022,inactive: -0.007,inactive: 0.034,inactive: 0,inactive: -0.015,inactive: -0.006,inactive: 0.002
PHF6 (UniProt Q8IWS0),inactive: -0.007,inactive: -0.009,inactive: 0.03,inactive: 0.059,inactive: 0.075,inactive: -0.046,inactive: -0.041,inactive: 0.005,inactive: -0.02,inactive: -0.054
PGPEP1 (UniProt Q9NXJ5),inactive: 0.023,inactive: -0.013,inactive: 0.011,inactive: -0.025,inactive: 0.057,inactive: -0.029,inactive: 0.03,inactive: 0.045,inactive: -0.013,inactive: -0.019
PICALM (UniProt H0YEH1),inactive: 0.046,inactive: 0.016,inactive: -0.086,active: -0.47,inactive: -0.075,inactive: 0.238,inactive: 0.152,inactive: 0.274,inactive: 0.018,active: 0.335
PLCB2 (UniProt Q00722),inactive: 0.037,inactive: 0.032,inactive: -0.015,inactive: -0.052,inactive: -0.048,inactive: -0.005,inactive: 0.09,inactive: -0.022,inactive: -0.08,inactive: -0.051

# In a second layout: results already given
Target	log2 fold change [1]	log2 fold change [2]	log2 fold change [3]	log2 fold change [4]	log2 fold change [5]	log2 fold change [6]	log2 fold change [7]	log2 fold change [8]	log2 fold change [9]	log2 fold change [10]
PIK3CA (UniProt P42336)	inactive: -0.015	inactive: -0.001	inactive: 0.032	inactive: 0.025	inactive: -0.251	inactive: -0.052	inactive: 0.058	inactive: -0.027	inactive: -0.086	inactive: 0.01
PHKG2 (UniProt P15735)	inactive: -0.07	inactive: -0.069	inactive: 0.166	inactive: 0	inactive: -0.008	inactive: 0.061	inactive: -0.051	inactive: 0.031	inactive: 0.015	inactive: -0.107
PINX1 (UniProt Q96BK5)	inactive: 0.081	inactive: -0.049	inactive: -0.032	inactive: -0.005	inactive: 0.111	inactive: 0.201	inactive: 0.136	inactive: 0.035	inactive: -0.07	inactive: 0.265
PHF10 (UniProt Q8WUB8)	inactive: 0.065	inactive: -0.027	inactive: 0.055	inactive: 0.028	inactive: 0.044	inactive: -0.007	inactive: 0.098	inactive: -0.022	inactive: -0.057	inactive: 0.054
PLBD2 (UniProt Q8NHP8)	inactive: 0.035	inactive: -0.056	inactive: -0.018	inactive: -0.074	inactive: 0.005	inactive: 0.052	inactive: 0.097	inactive: 0.007	inactive: 0.067	inactive: -0.02
PKM (UniProt P14618)	inactive: -0.007	inactive: -0.001	inactive: -0.023	inactive: -0.056	inactive: -0.006	inactive: 0.015	inactive: -0.023	inactive: -0.017	inactive: -0.009	inactive: 0.005
